Reference: PubChem BioAssay AID1508597 (Cure First, 2020)
This is one part, drawn at random, of about 2,100 reagents. 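Calls flag viability under 80% in either arm, not effects specific to rucaparib; the reference for percent is not stated.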 A reagent listed more than once was tested more than once; the source does not tell the runs apart. Not given: the 100% reference.

Purpose: 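Knock-downs altering ovarian cancer cell survival with or without PARP inhibitor rucaparib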 (primary screen)
System: human ovarian carcinoma lines grown from tumours: OCI-P5x (papillary serous) and OCI-C5x (clear cell)
Reagent: siRNA pool against human genes, 1.25 pmol siRNA per well
Duration: 72 h or 96 h, depending on the cell culture
Challenge: rucaparib 20 µM (about IC30) or vehicle, present until read-out
Detection: 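ATP luminescence measured at 72 or 96 h according to the culture, then normalised and expressed as percent viability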
Reading the numbers: viability, normalised: higher = more viable cells remaining
Call rule: 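Active when normalised viability falls below 80 percent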
Calls: active = viability under 80%; inactive = viability 80% or more

"viability, normalised (%)",Outcome,Target gene,PubChem SID,rucaparib or vehicle,cell line,technical replicate
46.2,active,GLI3,SID405526817,Rucaparib,OCI-C5x (clear cell),1
62.3,active,GLI3,SID405526817,Rucaparib,OCI-C5x (clear cell),2
59.4,active,GLI3,SID405526817,Rucaparib,OCI-C5x (clear cell),3
55.6,active,GLI3,SID405526817,Rucaparib,OCI-P5x (serous),1
65.7,active,GLI3,SID405526817,Rucaparib,OCI-P5x (serous),2
58.5,active,GLI3,SID405526817,Rucaparib,OCI-P5x (serous),3
57.8,active,GLI3,SID405526817,Vehicle,OCI-C5x (clear cell),1
62.3,active,GLI3,SID405526817,Vehicle,OCI-C5x (clear cell),2
75.9,active,GLI3,SID405526817,Vehicle,OCI-C5x (clear cell),3
67.7,active,GLI3,SID405526817,Vehicle,OCI-P5x (serous),1
80,active,GLI3,SID405526817,Vehicle,OCI-P5x (serous),2
133,inactive,GLI3,SID405526817,Vehicle,OCI-P5x (serous),3
53.2,active,LBR,SID405526952,Rucaparib,OCI-C5x (clear cell),1
35.3,active,LBR,SID405526952,Rucaparib,OCI-C5x (clear cell),2
48,active,LBR,SID405526952,Rucaparib,OCI-C5x (clear cell),3
55.4,active,LBR,SID405526952,Rucaparib,OCI-P5x (serous),1
59,active,LBR,SID405526952,Rucaparib,OCI-P5x (serous),2
44.7,active,LBR,SID405526952,Rucaparib,OCI-P5x (serous),3
55.9,active,LBR,SID405526952,Vehicle,OCI-C5x (clear cell),1
68.3,active,LBR,SID405526952,Vehicle,OCI-C5x (clear cell),2
61.5,active,LBR,SID405526952,Vehicle,OCI-C5x (clear cell),3
61.1,active,LBR,SID405526952,Vehicle,OCI-P5x (serous),1
72.9,active,LBR,SID405526952,Vehicle,OCI-P5x (serous),2
65.1,active,LBR,SID405526952,Vehicle,OCI-P5x (serous),3
51.1,active,NDEL1,SID405527067,Rucaparib,OCI-C5x (clear cell),1
52.9,active,NDEL1,SID405527067,Rucaparib,OCI-C5x (clear cell),2
37.9,active,NDEL1,SID405527067,Rucaparib,OCI-C5x (clear cell),3
41.5,active,NDEL1,SID405527067,Rucaparib,OCI-P5x (serous),1
46.2,active,NDEL1,SID405527067,Rucaparib,OCI-P5x (serous),2
40,active,NDEL1,SID405527067,Rucaparib,OCI-P5x (serous),3
51.8,active,NDEL1,SID405527067,Vehicle,OCI-C5x (clear cell),1
41.3,active,NDEL1,SID405527067,Vehicle,OCI-C5x (clear cell),2
46.6,active,NDEL1,SID405527067,Vehicle,OCI-C5x (clear cell),3
53.2,active,NDEL1,SID405527067,Vehicle,OCI-P5x (serous),1
61.5,active,NDEL1,SID405527067,Vehicle,OCI-P5x (serous),2
68,active,NDEL1,SID405527067,Vehicle,OCI-P5x (serous),3
62.9,active,DAPK2,SID405527904,Rucaparib,OCI-C5x (clear cell),1
53,active,DAPK2,SID405527904,Rucaparib,OCI-C5x (clear cell),2
81.9,inactive,DAPK2,SID405527904,Rucaparib,OCI-C5x (clear cell),3
80.2,inactive,DAPK2,SID405527904,Rucaparib,OCI-P5x (serous),1
70.8,active,DAPK2,SID405527904,Rucaparib,OCI-P5x (serous),2
63.2,active,DAPK2,SID405527904,Rucaparib,OCI-P5x (serous),3
46.8,active,DAPK2,SID405527904,Vehicle,OCI-C5x (clear cell),1
40.7,active,DAPK2,SID405527904,Vehicle,OCI-C5x (clear cell),2
48,active,DAPK2,SID405527904,Vehicle,OCI-C5x (clear cell),3
82.3,inactive,DAPK2,SID405527904,Vehicle,OCI-P5x (serous),1
66.2,active,DAPK2,SID405527904,Vehicle,OCI-P5x (serous),2
70.6,active,DAPK2,SID405527904,Vehicle,OCI-P5x (serous),3
53.9,active,BUB1,SID405527603,Rucaparib,OCI-C5x (clear cell),1
51.7,active,BUB1,SID405527603,Rucaparib,OCI-C5x (clear cell),1
51.9,active,BUB1,SID405527603,Rucaparib,OCI-C5x (clear cell),2
46.6,active,BUB1,SID405527603,Rucaparib,OCI-C5x (clear cell),2
54.1,active,BUB1,SID405527603,Rucaparib,OCI-C5x (clear cell),3
62.6,active,BUB1,SID405527603,Rucaparib,OCI-C5x (clear cell),3
76.7,active,BUB1,SID405527603,Rucaparib,OCI-P5x (serous),1
72.1,active,BUB1,SID405527603,Rucaparib,OCI-P5x (serous),1
80.1,inactive,BUB1,SID405527603,Rucaparib,OCI-P5x (serous),2
74.7,active,BUB1,SID405527603,Rucaparib,OCI-P5x (serous),2
52.6,active,BUB1,SID405527603,Rucaparib,OCI-P5x (serous),3
90.5,inactive,BUB1,SID405527603,Rucaparib,OCI-P5x (serous),3
63.8,active,BUB1,SID405527603,Vehicle,OCI-C5x (clear cell),1
60.5,active,BUB1,SID405527603,Vehicle,OCI-C5x (clear cell),1
52.3,active,BUB1,SID405527603,Vehicle,OCI-C5x (clear cell),2
60.4,active,BUB1,SID405527603,Vehicle,OCI-C5x (clear cell),2
61.4,active,BUB1,SID405527603,Vehicle,OCI-C5x (clear cell),3
52.8,active,BUB1,SID405527603,Vehicle,OCI-C5x (clear cell),3
67.8,active,BUB1,SID405527603,Vehicle,OCI-P5x (serous),1
57.2,active,BUB1,SID405527603,Vehicle,OCI-P5x (serous),1
53.1,active,BUB1,SID405527603,Vehicle,OCI-P5x (serous),2
57.9,active,BUB1,SID405527603,Vehicle,OCI-P5x (serous),2
55,active,BUB1,SID405527603,Vehicle,OCI-P5x (serous),3
52.4,active,BUB1,SID405527603,Vehicle,OCI-P5x (serous),3

11 entries from above, arranged by “viability, normalised (%)”, highest first:
"viability, normalised (%)",Outcome,Target gene,PubChem SID,rucaparib or vehicle,cell line,technical replicate
133,inactive,GLI3,SID405526817,Vehicle,OCI-P5x (serous),3
80,active,GLI3,SID405526817,Vehicle,OCI-P5x (serous),2
75.9,active,GLI3,SID405526817,Vehicle,OCI-C5x (clear cell),3
67.7,active,GLI3,SID405526817,Vehicle,OCI-P5x (serous),1
62.3,active,GLI3,SID405526817,Vehicle,OCI-C5x (clear cell),2
59,active,LBR,SID405526952,Rucaparib,OCI-P5x (serous),2
55.4,active,LBR,SID405526952,Rucaparib,OCI-P5x (serous),1
53.2,active,LBR,SID405526952,Rucaparib,OCI-C5x (clear cell),1
48,active,LBR,SID405526952,Rucaparib,OCI-C5x (clear cell),3
44.7,active,LBR,SID405526952,Rucaparib,OCI-P5x (serous),3
35.3,active,LBR,SID405526952,Rucaparib,OCI-C5x (clear cell),2
